In experiment [1] the target is T1, Myc-BioID2-TRIP13 (human) (UniProt Q15645).
T1 sequence: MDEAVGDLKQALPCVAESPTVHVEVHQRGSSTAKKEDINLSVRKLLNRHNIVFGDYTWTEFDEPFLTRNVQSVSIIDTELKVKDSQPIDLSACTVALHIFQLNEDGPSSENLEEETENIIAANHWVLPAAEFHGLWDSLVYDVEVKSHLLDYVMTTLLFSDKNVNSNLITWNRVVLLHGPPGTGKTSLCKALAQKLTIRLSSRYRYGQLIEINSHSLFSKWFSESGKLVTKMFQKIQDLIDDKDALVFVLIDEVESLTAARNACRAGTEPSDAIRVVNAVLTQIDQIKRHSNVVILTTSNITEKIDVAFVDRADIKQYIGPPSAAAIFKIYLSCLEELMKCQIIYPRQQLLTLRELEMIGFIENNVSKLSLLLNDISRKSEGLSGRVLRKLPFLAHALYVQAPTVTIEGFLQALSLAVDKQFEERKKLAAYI
As to the kind of experiment: proximity labelling; biotin pulldown from BioID2-TRIP13-expressing U-2-OS cells (doxycycline induced), Western blot; with or without CPT for one hour.

Chains of the proteins cited; added tags and fusions are not shown.
UniProt Q12834: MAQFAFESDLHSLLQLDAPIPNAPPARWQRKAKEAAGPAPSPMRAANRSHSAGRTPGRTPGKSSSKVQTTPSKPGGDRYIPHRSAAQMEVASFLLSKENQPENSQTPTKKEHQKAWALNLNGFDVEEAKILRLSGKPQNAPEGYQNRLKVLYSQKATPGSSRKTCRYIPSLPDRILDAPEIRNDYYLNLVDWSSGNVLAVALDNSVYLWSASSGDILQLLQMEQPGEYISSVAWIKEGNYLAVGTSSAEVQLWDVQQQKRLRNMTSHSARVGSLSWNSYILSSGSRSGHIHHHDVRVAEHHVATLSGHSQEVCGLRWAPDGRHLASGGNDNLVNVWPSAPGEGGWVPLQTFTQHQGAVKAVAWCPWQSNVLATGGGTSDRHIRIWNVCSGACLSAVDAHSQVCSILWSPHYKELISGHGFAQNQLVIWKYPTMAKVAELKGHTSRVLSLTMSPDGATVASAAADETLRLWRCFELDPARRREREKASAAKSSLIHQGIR
UniProt Q13257: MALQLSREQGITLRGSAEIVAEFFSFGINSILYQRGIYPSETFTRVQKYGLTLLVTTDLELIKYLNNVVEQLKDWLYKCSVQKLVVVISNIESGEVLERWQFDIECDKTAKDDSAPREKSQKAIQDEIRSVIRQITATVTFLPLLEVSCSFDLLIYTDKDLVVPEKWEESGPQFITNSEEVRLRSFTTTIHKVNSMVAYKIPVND
UniProt O60934: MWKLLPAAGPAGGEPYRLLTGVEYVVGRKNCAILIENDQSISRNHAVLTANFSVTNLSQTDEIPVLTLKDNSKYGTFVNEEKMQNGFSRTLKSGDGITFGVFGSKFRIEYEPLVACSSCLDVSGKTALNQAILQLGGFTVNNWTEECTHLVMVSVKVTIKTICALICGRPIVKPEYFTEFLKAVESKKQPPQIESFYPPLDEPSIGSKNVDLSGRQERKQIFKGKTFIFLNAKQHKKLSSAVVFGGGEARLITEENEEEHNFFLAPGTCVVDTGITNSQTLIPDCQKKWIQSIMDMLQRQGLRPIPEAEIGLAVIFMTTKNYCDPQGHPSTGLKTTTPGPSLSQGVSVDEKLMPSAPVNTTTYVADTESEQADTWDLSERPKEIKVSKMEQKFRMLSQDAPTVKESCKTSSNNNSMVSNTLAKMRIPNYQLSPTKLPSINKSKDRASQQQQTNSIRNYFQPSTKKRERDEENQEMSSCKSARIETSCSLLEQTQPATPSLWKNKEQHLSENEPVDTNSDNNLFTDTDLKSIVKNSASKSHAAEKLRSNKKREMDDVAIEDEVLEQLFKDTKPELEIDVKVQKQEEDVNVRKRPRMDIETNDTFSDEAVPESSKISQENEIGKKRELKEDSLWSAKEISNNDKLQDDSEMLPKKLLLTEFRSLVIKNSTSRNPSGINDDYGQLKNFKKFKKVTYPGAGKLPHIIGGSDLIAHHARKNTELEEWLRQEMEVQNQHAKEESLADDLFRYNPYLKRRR
UniProt Q92878: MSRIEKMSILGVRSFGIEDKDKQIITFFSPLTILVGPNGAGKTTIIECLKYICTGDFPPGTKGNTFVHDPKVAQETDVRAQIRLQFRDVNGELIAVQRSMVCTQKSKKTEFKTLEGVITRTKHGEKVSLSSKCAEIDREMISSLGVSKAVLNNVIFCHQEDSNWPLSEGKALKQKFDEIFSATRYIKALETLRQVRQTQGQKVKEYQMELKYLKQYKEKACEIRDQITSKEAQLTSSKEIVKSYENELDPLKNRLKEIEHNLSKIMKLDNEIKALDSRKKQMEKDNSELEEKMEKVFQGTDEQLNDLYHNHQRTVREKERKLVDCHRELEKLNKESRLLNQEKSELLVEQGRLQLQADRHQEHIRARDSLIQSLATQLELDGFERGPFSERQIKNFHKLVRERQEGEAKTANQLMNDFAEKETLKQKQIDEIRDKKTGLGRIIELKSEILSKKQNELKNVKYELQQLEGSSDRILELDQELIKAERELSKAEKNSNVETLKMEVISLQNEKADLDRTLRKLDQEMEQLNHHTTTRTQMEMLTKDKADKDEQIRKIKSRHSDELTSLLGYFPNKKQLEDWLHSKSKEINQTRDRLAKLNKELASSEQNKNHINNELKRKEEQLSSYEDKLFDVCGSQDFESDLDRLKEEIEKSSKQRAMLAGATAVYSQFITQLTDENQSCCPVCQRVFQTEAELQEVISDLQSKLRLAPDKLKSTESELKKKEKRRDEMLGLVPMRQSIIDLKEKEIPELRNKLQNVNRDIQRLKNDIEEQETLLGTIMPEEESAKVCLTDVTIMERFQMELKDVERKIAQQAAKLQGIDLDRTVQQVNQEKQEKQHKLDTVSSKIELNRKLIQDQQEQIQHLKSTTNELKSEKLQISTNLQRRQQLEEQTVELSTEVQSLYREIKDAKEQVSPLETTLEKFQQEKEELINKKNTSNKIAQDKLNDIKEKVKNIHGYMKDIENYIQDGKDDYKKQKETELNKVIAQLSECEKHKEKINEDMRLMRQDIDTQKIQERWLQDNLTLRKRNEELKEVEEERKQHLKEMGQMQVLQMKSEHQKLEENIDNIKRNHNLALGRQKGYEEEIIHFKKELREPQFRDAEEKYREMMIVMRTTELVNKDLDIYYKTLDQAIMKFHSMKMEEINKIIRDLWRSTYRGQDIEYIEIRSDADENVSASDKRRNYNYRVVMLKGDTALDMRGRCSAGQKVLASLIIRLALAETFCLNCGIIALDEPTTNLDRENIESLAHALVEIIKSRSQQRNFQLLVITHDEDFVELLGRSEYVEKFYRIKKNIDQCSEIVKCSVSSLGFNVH

Experiment [2] concerns the target T1, Myc-BioID2-TRIP13 (human). The experiment can be described thus: proximity labelling; BioID2 proximity labelling with SILAC quantitative mass spectrometry; Myc-BioID2-TRIP13 against Myc-BioID2 alone; without induced DNA damage.

Results are given in words; binding and its absence hold for the method and conditions named. Binding seen in cells or lysates may run through a third protein. Here binding means that the protein was enriched with, or labelled near, the bait; the list need not be complete. For some assays here: A no says only that the protein was not detected with the bait. Tags and fused reporters may be left off the sequences shown.

For CDC20 (from UniProt Q12834 1-499), in experiment [1], the binding entry is “binds”.
Still for that read-out and setting: then MAD2 (from UniProt Q13257 1-205), with “binds”.
For the molecule NBS1 (from UniProt O60934 1-754), the binding result in experiment [2] was “no binding”.
For RAD50 (from UniProt Q92878 1-1312), in experiment [1], the binding entry is recorded as “binds”.

B1: p31comet (protein, UniProt Q15013 1-274)
chain: MAAPEAEVLSSAAVPDLEWYEKSEETHASQIELLETSSTQEPLNASEAFCPRDCMVPVVFPGPVSQEGCCQFTCELLKHIMYQRQQLPLPYEQLKHFYRKPSPQAEEMLKKKPRATTEVSSRKCQQALAELESVLSHLEDFFARTLVPRVLILLGGNALSPKEFYELDLSLLAPYSVDQSLSTAACLRRLFRAIFMADAFSELQAPPLMGTVVMAQGHRNCGEDWFRPKLNYRVPSRGHKLTVTLSCGRPSIRTTAWEDYIWFQAPVTFKGFRE
In the case of B1, the binding entry in experiment [1] is recorded as “binds”.

Source of the values: publication PMC9776959.
